# Experimental data reported in the supplement of paper PMC4604168 (melanoma cell lines).
# The other results are listed elsewhere or left out. Repeats are few or missing, and single values can be far off.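 Cells were imaged in 1,536-well plates, and nuclei stained with an antibody against cleaved PARP were counted against all DNA-stained nuclei to give the apoptosis fraction. Screening doses were chosen to leave most cells alive, and resting and induced cleaved-PARP levels differ strongly between cell lines.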
# Columns and labels:
# Assay in all cases: cleaved PARP positive nuclei fraction relative to DMSO control; melanoma cells; higher = more apoptosis
# Settings in all cases: library dose: low library concentration; 72 h
# CBRC034 = tested on: CBRC034 (line from a melanoma biopsy)
# COLO792 = tested on: COLO792
# COLO800 = tested on: COLO800
# COLO829 = tested on: COLO829
# G361 = tested on: G361
# IPC-298 = tested on: IPC-298
# IST-MEL1 = tested on: IST-MEL1
# LB2518-MEL = tested on: LB2518-MEL
# LOXIMVI = tested on: LOXIMVI
# MEL-HO = tested on: MEL-HO
Structure (SMILES),cleaved PARP positive nuclei fraction (CBRC034) [%],cleaved PARP positive nuclei fraction (COLO792) [%],cleaved PARP positive nuclei fraction (COLO800) [%],cleaved PARP positive nuclei fraction (COLO829) [%],cleaved PARP positive nuclei fraction (G361) [%],cleaved PARP positive nuclei fraction (IPC-298) [%],cleaved PARP positive nuclei fraction (IST-MEL1) [%],cleaved PARP positive nuclei fraction (LB2518-MEL) [%],cleaved PARP positive nuclei fraction (LOXIMVI) [%],cleaved PARP positive nuclei fraction (MEL-HO) [%]
"N.N.[Cl][Pt][Cl] [cisplatin] + CNC(=O)c1cc(Oc2ccc(NC(=O)Nc3ccc(Cl)c(C(F)(F)F)c3)cc2)ccn1 [sorafenib] (first compound 1.6 µM, partner dose 0.4 µM)",49.9,79.7,105,90.5,32.8,93.3,69.4,24.4,132,96.7
"C[C@]12O[C@H](C[C@]1(O)CO)n1c3ccccc3c3c4c(c5c6ccccc6n2c5c31)CNC4=O [Lestaurtinib] + Nc1cccc2c1CN(C1CCC(=O)NC1=O)C2=O [lenalidomide] (first compound 0.004 µM, partner dose 1 µM)",222,77,103,175,96.8,203,60.8,51.8,59.4,63.4
"Cn1sc(=O)n(Cc2ccccc2)c1=O + C[C@]12O[C@H](C[C@]1(O)CO)n1c3ccccc3c3c4c(c5c6ccccc6n2c5c31)CNC4=O [Lestaurtinib] (first compound 0.4 µM, partner dose 0.004 µM)",126,92.7,51.8,173,100,42.6,182,60.1,128,75.9
"C[C@]12O[C@H](C[C@]1(O)CO)n1c3ccccc3c3c4c(c5c6ccccc6n2c5c31)CNC4=O [Lestaurtinib] + O=C(O)[C@@H]1[O][Sb](=[O])([O][Sb]2(=[O])[O][C@H]([C@H](O)CO)[C@H](O)[C@H](C(=O)O)[O]2)[O][C@H]([C@H](O)CO)[C@@H]1O [stibogluconate] (first compound 0.004 µM, partner dose 2 µM)",30,60.7,134,100,69.1,44.4,51.9,104,168,121
"C[C@]12O[C@H](C[C@]1(O)CO)n1c3ccccc3c3c4c(c5c6ccccc6n2c5c31)CNC4=O [Lestaurtinib] + Nc1ccn([C@@H]2O[C@H](CO)[C@@H](O)C2(F)F)c(=O)n1 [gemcitabine] (first compound 0.004 µM, partner dose 0.0004 µM)",330,72.7,97.3,96.6,93.8,95.9,73,236,80,63.6
"C[C@@H](N)c1ccc(C(=O)Nc2ccnc3[nH]ccc23)cc1 + Cn1cc(C2=C(c3cn(C4CCN(Cc5ccccn5)CC4)c4ccccc34)C(=O)NC2=O)c2ccccc21 [Enzastaurin] (first compound 0.4 µM, partner dose 0.8 µM)",73.3,107,88.1,108,115,81.3,54.2,118,157,91.7
"CCCCCCCCc1ccc(CCC(N)(CO)CO)cc1 [fingolimod] + C[As](C)SC[C@H](NC(=O)CC[C@H](N)C(=O)O)C(=O)NCC(=O)O [Darinaparsin] (first compound 2 µM, partner dose 0.4 µM)",170,58.2,129,86.4,100,96,62.1,192,184,103
"Cn1cc(C2=C(c3cn(C4CCN(Cc5ccccn5)CC4)c4ccccc34)C(=O)NC2=O)c2ccccc21 [Enzastaurin] + CCN(CC)CCNC(=O)c1c(C)[nH]c(/C=C2\C(=O)Nc3ccc(F)cc32)c1C [sunitinib] (first compound 0.8 µM, partner dose 0.4 µM)",195,49.3,213,62.5,79.2,125,117,88.8,119,46.1
"N#CC[C@H](C1CCCC1)n1cc(-c2ncnc3[nH]ccc23)cn1 [ruxolitinib] + C[As](C)SC[C@H](NC(=O)CC[C@H](N)C(=O)O)C(=O)NCC(=O)O [Darinaparsin] (first compound 1 µM, partner dose 0.4 µM)",109,47.9,71,65.2,115,39.5,31.7,103,73.8,151
"NC(=O)c1ccc(N(C(N)=O)c2c(F)cccc2F)nc1-c1ccc(F)cc1F + N.N.[Cl][Pt][Cl] [cisplatin] (first compound 0.4 µM, partner dose 1.6 µM)",113,93.6,84.2,105,99.1,107,61.6,110,387,55.2
"N.N.[Cl][Pt][Cl] [cisplatin] + Cn1nnc2c(C(N)=O)ncn2c1=O [temozolomide] (first compound 1.6 µM, partner dose 2 µM)",80.4,112,80.5,121,131,44.6,249,118,125,28.7
"N.N.[Cl][Pt][Cl] [cisplatin] + C#Cc1cccc(Nc2ncnc3cc(OCCOC)c(OCCOC)cc23)c1 [erlotinib] (first compound 1.6 µM, partner dose 0.8 µM)",82.1,65.2,126,74.2,53,59.5,91.8,115,51.8,37.5
"N.N.[Cl][Pt][Cl] [cisplatin] + C[As](C)SC[C@H](NC(=O)CC[C@H](N)C(=O)O)C(=O)NCC(=O)O [Darinaparsin] (first compound 1.6 µM, partner dose 0.4 µM)",44.5,99,90.8,119,162,117,233,198,125,129
"C[C@]12O[C@H](C[C@]1(O)CO)n1c3ccccc3c3c4c(c5c6ccccc6n2c5c31)CNC4=O [Lestaurtinib] + COCC[n+]1c2c(n(Cc3cnccn3)c1C)C(=O)c1ccccc1C2=O [YM155] (first compound 0.004 µM, partner dose 0.0004 µM)",62.9,163,128,104,64.2,226,59.3,107,55.5,52.1
"C[C@]12O[C@H](C[C@]1(O)CO)n1c3ccccc3c3c4c(c5c6ccccc6n2c5c31)CNC4=O [Lestaurtinib] + CCN(CC)CCNC(=O)c1c(C)[nH]c(/C=C2\C(=O)Nc3ccc(F)cc32)c1C [sunitinib] (first compound 0.004 µM, partner dose 0.4 µM)",34.8,153,181,89.4,87.9,287,126,60.3,135,40
"Cn1cc(C2=C(c3cn(C4CCN(Cc5ccccn5)CC4)c4ccccc34)C(=O)NC2=O)c2ccccc21 [Enzastaurin] + OCc1c[nH]c2ccccc12 [Indole-3-carbinol] (first compound 0.8 µM, partner dose 0.8 µM)",84.8,57.7,171,133,121,117,114,132,65.5,24.6
"C[As](C)SC[C@H](NC(=O)CC[C@H](N)C(=O)O)C(=O)NCC(=O)O [Darinaparsin] + Cn1c(Nc2ccc(C(F)(F)F)cc2)nc2cc(Oc3ccnc(-c4ncc(C(F)(F)F)[nH]4)c3)ccc21 [CHIR265] (first compound 0.4 µM, partner dose 0.08 µM)",179,223,23.7,67,228,198,132,410,70.1,39.2
"Cn1cc(C2=C(c3cn(C4CCN(Cc5ccccn5)CC4)c4ccccc34)C(=O)NC2=O)c2ccccc21 [Enzastaurin] + C[C@]12O[C@H](C[C@]1(O)CO)n1c3ccccc3c3c4c(c5c6ccccc6n2c5c31)CNC4=O [Lestaurtinib] (first compound 0.8 µM, partner dose 0.004 µM)",201,77.7,85.9,57.7,62.3,114,28.8,123,70.5,63.9

# An excerpt of these results, with tabs.
Structure (SMILES)	cleaved PARP positive nuclei fraction (CBRC034) [%]	cleaved PARP positive nuclei fraction (COLO792) [%]	cleaved PARP positive nuclei fraction (COLO800) [%]	cleaved PARP positive nuclei fraction (COLO829) [%]	cleaved PARP positive nuclei fraction (G361) [%]	cleaved PARP positive nuclei fraction (IPC-298) [%]	cleaved PARP positive nuclei fraction (IST-MEL1) [%]	cleaved PARP positive nuclei fraction (LB2518-MEL) [%]	cleaved PARP positive nuclei fraction (LOXIMVI) [%]	cleaved PARP positive nuclei fraction (MEL-HO) [%]
Cn1cc(C2=C(c3cn(C4CCN(Cc5ccccn5)CC4)c4ccccc34)C(=O)NC2=O)c2ccccc21 [Enzastaurin] + CCN(CC)CCNC(=O)c1c(C)[nH]c(/C=C2\C(=O)Nc3ccc(F)cc32)c1C [sunitinib] (first compound 0.8 µM, partner dose 0.4 µM)	195	49.3	213	62.5	79.2	125	117	88.8	119	46.1
N#CC[C@H](C1CCCC1)n1cc(-c2ncnc3[nH]ccc23)cn1 [ruxolitinib] + C[As](C)SC[C@H](NC(=O)CC[C@H](N)C(=O)O)C(=O)NCC(=O)O [Darinaparsin] (first compound 1 µM, partner dose 0.4 µM)	109	47.9	71	65.2	115	39.5	31.7	103	73.8	151
NC(=O)c1ccc(N(C(N)=O)c2c(F)cccc2F)nc1-c1ccc(F)cc1F + N.N.[Cl][Pt][Cl] [cisplatin] (first compound 0.4 µM, partner dose 1.6 µM)	113	93.6	84.2	105	99.1	107	61.6	110	387	55.2
N.N.[Cl][Pt][Cl] [cisplatin] + Cn1nnc2c(C(N)=O)ncn2c1=O [temozolomide] (first compound 1.6 µM, partner dose 2 µM)	80.4	112	80.5	121	131	44.6	249	118	125	28.7
